# Assay results reported in the supplement of paper PMC7411640.
# Where a name gives a salt, the structure may show the parent alone. The list shows a part of the results. Single values are uncertain here, since repeats match poorly.
# System: MDA-MB-468
# Assay: phospho-S6 immunofluorescence (DAPI-normalised), per-plate z-score; higher = higher phospho-S6 signal (less pathway suppression)
# Settings: compound 0.1 µM; co-treatment: GDC0941 450 nM; 24 h
# Description: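 GPCR-targeted compound library (MedChemExpress HY-L006) tested on MDA-MB-468 PTEN-null TNBC cells in 384-well plates at 0.1, 1 or 10 uM, combined with vehicle, GDC0941 450 nM or lapatinib 1 uM, for 24 h. Phospho-S6 (S240/244) immunofluorescence normalised to DAPI and expressed as a per-plate z-score; values are the mean of biological triplicates.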
row,Structure (SMILES),phospho-S6 immunofluorescence (z-score)
1,Cc1cncc(CN2CCC(=C3c4ccc(Cl)cc4CCc4cccnc43)CC2)c1 [Rupatadine (Fumarate)],-0.59
2,Cn1cc(C(=O)[C@@H]2CCc3[nH]cnc3C2)c2ccccc21 [Ramosetron (Hydrochloride)],0.04
3,N#Cc1cc(NC(=O)C(=O)O)c(Cl)c(NC(=O)C(=O)O)c1 [Lodoxamide],0.57
4,OCCOCCN1CCN(C(c2ccccc2)c2ccc(Cl)cc2)CC1 (stereo not given) [Hydroxyzine (dihydrochloride)],0.33
5,COc1ccc2c(c1OC)C(=O)O[C@@H]2[C@H]1c2c(cc3c(c2OC)OCO3)CCN1C [Noscapine],-0.12
6,CCc1nn(CCCN2CCN(c3cccc(Cl)c3)CC2)c(=O)n1CCOc1ccccc1 [Nefazodone (hydrochloride)],-0.4
7,CN(C)CCCN1c2ccccc2Sc2ccccc21 [Promazine (hydrochloride)],0.36
8,CN(C)CCC(c1ccc(Cl)cc1)c1ccccn1 (stereo not given) [Chlorpheniramine (maleate)],-0.6
9,CCCCc1nc(C)c(CC(=S)N(C)C)c(=O)n1Cc1ccc(-c2ccccc2-c2nnn[nH]2)cc1 [Fimasartan],0.45
10,C[N+]1(C)CCC(=C(c2ccccc2)c2ccccc2)CC1 [Diphenmanil (methylsulfate)],-0.12
11,OCCOCCN1CCN(C2=Nc3ccccc3Sc3ccccc32)CC1 [Quetiapine (fumarate)],-1.07
12,COc1cc2nc(N3CCN(C(=O)c4ccco4)CC3)nc(N)c2cc1OC [Prazosin (hydrochloride)],0.21
13,N=C(N)NCCCCN [Agmatine (sulfate)],0.23
14,CN1CCN(C(=O)c2cc3cc(Cl)ccc3[nH]2)CC1,1.36
15,CN1CCc2cc(Cl)c(O)cc2[C@@H](c2ccccc2)C1,-0.08
16,COc1cc2nc(N3CCN(C(=O)C4CCCO4)CC3)nc(N)c2cc1OC (stereo not given) [Terazosin (hydrochloride dihydrate)],0.48
17,NCCc1c[nH]cn1 [Histamine],0.69
18,CCN1CCCC1CNC(=O)c1cc(S(N)(=O)=O)ccc1OC (stereo not given) [Sulpiride],0.42
19,COCCOc1ccc(N2CCN(CCn3ncc4c3nc(N)n3nc(-c5ccco5)nc43)CC2)cc1 [Preladenant],0.7
20,CCN(CC)CCNC(=O)c1cc(Cl)c(N)cc1OC [Metoclopramide (hydrochloride hydrate)],0.06

row,Structure (SMILES),phospho-S6 immunofluorescence (z-score)
1,Nc1ccc(/C=C/c2cccc(C(=O)O)n2)cc1,0.78
2,CC(C)C(=O)OCC(=O)[C@@]12O[C@H](C3CCCCC3)O[C@@H]1C[C@H]1[C@@H]3CCC4=CC(=O)C=C[C@]4(C)[C@H]3[C@@H](O)C[C@@]12C [Ciclesonide],-0.76
3,N#Cc1ccc2[nH]cc(CCCCN3CCN(c4ccc5oc(C(N)=O)cc5c4)CC3)c2c1 [Vilazodone],-0.35
4,Cc1ccc(Sc2ccccc2N2CCNCC2)c(C)c1 [Vortioxetine],-0.46
5,CN(C)CCCN1c2ccccc2Sc2ccc(Cl)cc21 [Chlorpromazine (hydrochloride)],0.03
6,Clc1ccc(Cn2c(CN3CCCC3)nc3ccccc32)cc1 [Clemizole (hydrochloride)],-2.25
7,CCCc1nc(C(C)(C)O)c(C(=O)O)n1Cc1ccc(-c2ccccc2-c2nnn[nH]2)cc1 [Olmesartan],-0.36
8,CC(N)(C(=O)O)c1ccc(C(=O)O)cc1 (racemic),0.77
9,c1cc(CN2CCCNCCNCCCNCC2)ccc1CN1CCCNCCNCCCNCC1 [Plerixafor (octahydrochloride)],-1.05
10,CN1CCC[C@@H]1CCO[C@](C)(c1ccccc1)c1ccc(Cl)cc1 [Clemastine (fumarate)],0.32
11,Cc1nc2c([nH]1)-c1ccccc1N(C(=O)c1ccc(NC(=O)c3ccccc3-c3ccccc3)cc1)CC2 [Conivaptan (hydrochloride)],0.55
12,COc1nc(C)cnc1NS(=O)(=O)c1cccnc1-c1ccc(-c2nnco2)cc1 [Zibotentan],-1.11
13,O=C(Nc1ccccc1)C12CC1C(=NO)c1ccccc1O2 (stereo not given),0.2
14,O=C(CCCN1CCC(O)(c2ccc(Cl)cc2)CC1)c1ccc(F)cc1 [Haloperidol],0.66
15,COc1ccc2cc(OCC3(C(=O)O)CN(C(=O)c4ccc(F)cc4)C3)ccc2c1,-0.58
16,CC(C)C[C@H](NC(=O)CNC(=O)[C@H](Cc1ccc(O)cc1)NC(=O)[C@H](CO)NC(=O)[C@H](Cc1c[nH]c2ccccc12)NC(=O)[C@H](Cc1cnc[nH]1)NC(=O)[C@@H]1CCC(=O)N1)C(=O)N[C@@H](CCCNC(=N)N)C(=O)N1CCC[C@H]1C(=O)NCC(N)=O [Gonadorelin (acetate)],-0.29
17,CN1CCC(=C2c3ccccc3CC(=O)c3sccc32)CC1 [Ketotifen (fumarate)],-0.63
18,CN1CCC(OC(c2ccccc2)c2ccccc2)CC1 [Diphenylpyraline (hydrochloride)],0.68
19,Cn1c(=O)c2nc[nH]c2n(C)c1=O [Theophylline],0.72
20,CC(=O)OCC(=O)[C@@]1(O)[C@H](C)C[C@H]2[C@@H]3CCC4=CC(=O)C=C[C@]4(C)[C@@]3(F)[C@@H](O)C[C@@]21C [Dexamethasone (acetate)],-1.09

# Reformatted bar-delimited: part of the list above.
row | Structure (SMILES) | phospho-S6 immunofluorescence (z-score)
6 | Clc1ccc(Cn2c(CN3CCCC3)nc3ccccc32)cc1 [Clemizole (hydrochloride)] | -2.25
9 | c1cc(CN2CCCNCCNCCCNCC2)ccc1CN1CCCNCCNCCCNCC1 [Plerixafor (octahydrochloride)] | -1.05
